Source: patent US20200308219A1
No constants are given. Whether binding was seen depends on the method and setting. For part of these data: Binding seen in cells or lysates may run through a third protein. Some entries that bind do so weakly or less than the wild type. Where a sequence is shown, tags or fusion partners need not be part of it. Blank lines part the entries; values can stand above or below the molecule they belong to.

Sequences of proteins named here, by UniProt entry; tags and fusion partners are left off. Residues count along the entry.
UniProt P26022, residues 18-381: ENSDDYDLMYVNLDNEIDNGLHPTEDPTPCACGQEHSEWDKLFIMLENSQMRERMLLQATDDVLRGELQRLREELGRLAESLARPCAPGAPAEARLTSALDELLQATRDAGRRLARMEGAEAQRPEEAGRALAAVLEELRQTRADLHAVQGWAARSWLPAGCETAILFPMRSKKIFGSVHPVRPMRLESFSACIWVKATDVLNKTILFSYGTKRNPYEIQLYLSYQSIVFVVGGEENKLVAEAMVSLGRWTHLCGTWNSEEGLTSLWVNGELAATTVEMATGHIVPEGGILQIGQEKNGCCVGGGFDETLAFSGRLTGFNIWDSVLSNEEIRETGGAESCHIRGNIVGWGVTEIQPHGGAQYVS
UniProt P07996, residues 19-1170: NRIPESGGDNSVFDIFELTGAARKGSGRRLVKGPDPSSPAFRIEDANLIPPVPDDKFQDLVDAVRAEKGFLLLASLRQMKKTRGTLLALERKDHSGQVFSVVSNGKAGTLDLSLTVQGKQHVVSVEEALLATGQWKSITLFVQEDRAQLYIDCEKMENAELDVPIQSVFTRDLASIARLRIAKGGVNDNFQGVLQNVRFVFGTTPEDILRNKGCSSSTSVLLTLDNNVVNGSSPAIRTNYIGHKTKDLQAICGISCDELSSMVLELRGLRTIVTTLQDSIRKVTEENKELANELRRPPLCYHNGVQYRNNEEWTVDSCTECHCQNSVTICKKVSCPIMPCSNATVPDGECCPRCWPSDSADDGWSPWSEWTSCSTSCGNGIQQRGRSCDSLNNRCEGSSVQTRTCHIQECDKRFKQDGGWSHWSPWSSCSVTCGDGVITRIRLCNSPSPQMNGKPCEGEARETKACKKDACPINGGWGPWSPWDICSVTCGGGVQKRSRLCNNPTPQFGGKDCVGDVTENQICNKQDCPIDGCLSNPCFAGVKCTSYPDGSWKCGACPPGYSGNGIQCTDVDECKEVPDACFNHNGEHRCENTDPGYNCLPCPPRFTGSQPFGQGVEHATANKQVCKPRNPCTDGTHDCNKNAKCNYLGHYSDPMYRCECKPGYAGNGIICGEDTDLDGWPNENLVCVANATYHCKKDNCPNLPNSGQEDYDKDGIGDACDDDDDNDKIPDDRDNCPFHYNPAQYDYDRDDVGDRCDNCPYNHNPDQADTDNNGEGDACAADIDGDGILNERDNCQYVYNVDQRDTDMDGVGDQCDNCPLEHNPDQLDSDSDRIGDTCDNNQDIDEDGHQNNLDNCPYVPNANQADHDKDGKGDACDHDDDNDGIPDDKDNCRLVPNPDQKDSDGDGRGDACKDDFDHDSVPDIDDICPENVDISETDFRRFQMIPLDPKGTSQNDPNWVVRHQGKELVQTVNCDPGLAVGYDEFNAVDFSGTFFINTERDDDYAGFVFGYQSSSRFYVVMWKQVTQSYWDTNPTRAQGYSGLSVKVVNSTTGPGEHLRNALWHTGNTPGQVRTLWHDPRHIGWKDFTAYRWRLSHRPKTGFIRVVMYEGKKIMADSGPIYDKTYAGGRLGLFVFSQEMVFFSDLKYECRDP

Tests used:
[1] = target: T1, HC-HA complex purified from human amniotic membrane (PBS or GnHCl extract, by successive ultracentrifugation) (human) (UniProt P19827); assay: Western blot anti-PTX3 of AM extract and HC-HA with or without NaOH
T1 sequence (ester-linked to hyaluronan (HA), looked up): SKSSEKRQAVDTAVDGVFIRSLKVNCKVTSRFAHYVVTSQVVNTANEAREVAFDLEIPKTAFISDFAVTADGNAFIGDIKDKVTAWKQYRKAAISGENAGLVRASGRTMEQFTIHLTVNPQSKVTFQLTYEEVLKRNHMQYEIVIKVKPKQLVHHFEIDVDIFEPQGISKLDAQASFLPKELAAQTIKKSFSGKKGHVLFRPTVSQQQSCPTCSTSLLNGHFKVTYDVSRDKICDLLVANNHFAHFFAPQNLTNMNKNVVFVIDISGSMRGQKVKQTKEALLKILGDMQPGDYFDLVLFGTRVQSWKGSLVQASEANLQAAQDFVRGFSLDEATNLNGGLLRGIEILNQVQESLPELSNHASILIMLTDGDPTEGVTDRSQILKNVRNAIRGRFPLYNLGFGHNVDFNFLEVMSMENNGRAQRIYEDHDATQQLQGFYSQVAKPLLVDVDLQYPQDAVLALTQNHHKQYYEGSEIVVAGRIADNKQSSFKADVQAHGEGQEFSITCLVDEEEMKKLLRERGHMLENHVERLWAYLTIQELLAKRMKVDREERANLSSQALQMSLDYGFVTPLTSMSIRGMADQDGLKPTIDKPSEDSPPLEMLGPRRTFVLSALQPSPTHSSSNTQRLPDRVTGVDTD

[2] = target: T1, HC-HA complex purified from human amniotic membrane (PBS or GnHCl extract, by successive ultracentrifugation) (human); assay: co-purification; Western blot anti-PTX3 of AM 2nd and 4th HC-HA with or without HAase
[3] = target: T2, HC-HA complex purified from human umbilical cord (PBS or GnHCl extract, 4th ultracentrifugation) (human) (UniProt P19827); assay: Western blot anti-PTX3 of 4th UC HC-HA, sample buffer with or without 2-ME
T2 sequence (ester-linked to hyaluronan (HA), looked up): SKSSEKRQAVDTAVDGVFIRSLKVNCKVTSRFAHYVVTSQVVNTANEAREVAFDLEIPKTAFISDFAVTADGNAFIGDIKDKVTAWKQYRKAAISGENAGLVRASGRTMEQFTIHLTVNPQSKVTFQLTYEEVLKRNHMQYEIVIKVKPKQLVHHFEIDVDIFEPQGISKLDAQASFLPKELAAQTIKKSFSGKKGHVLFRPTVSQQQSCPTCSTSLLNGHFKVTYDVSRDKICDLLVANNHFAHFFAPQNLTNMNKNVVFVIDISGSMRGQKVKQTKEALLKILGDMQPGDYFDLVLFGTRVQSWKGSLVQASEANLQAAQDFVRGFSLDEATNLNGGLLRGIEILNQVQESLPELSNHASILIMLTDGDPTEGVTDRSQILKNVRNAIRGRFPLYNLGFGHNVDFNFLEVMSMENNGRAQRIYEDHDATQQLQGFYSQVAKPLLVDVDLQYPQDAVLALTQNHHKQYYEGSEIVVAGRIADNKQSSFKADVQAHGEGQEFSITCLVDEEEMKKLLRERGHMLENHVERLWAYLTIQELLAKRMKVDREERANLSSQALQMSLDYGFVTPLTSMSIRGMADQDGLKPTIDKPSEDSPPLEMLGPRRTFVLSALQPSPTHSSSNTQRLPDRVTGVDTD

[4] = target: T1, HC-HA complex purified from human amniotic membrane (PBS or GnHCl extract, by successive ultracentrifugation) (human); assay: agarose gel of PBS and GnHCl HC-HA compared with PTX3 Western blot
[5] = target: T2, HC-HA complex purified from human umbilical cord (PBS or GnHCl extract, 4th ultracentrifugation) (human); assay: Western blot anti-PTX3 of UC GnHCl HC-HA after HAase, keratinase, chondroitinase
[6] = target: T1, HC-HA complex purified from human amniotic membrane (PBS or GnHCl extract, by successive ultracentrifugation) (human); assay: co-purification through 1-4 CsCl/GnHCl ultracentrifugations; Western blot anti-PTX3 with or without HAase
[7] = target: T1, HC-HA complex purified from human amniotic membrane (PBS or GnHCl extract, by successive ultracentrifugation) (human); assay: Western blot anti-TSP-1 of AM GnHCl extract with or without HAase; binding dissociated by GnHCl and CsCl
[8] = target: T2, HC-HA complex purified from human umbilical cord (PBS or GnHCl extract, 4th ultracentrifugation) (human); assay: Western blot anti-bikunin of UC GnHCl HC-HA with chondroitinase
[9] = target: T1, HC-HA complex purified from human amniotic membrane (PBS or GnHCl extract, by successive ultracentrifugation) (human); assay: co-purification; Western blot anti-osteoadherin

binding [1]: binds
binding [2]: binds
binding [3]: binds
binding [4]: binds
binding [5]: binds
binding [6]: binds
Molecule: native PTX3 of human amniotic membrane and umbilical cord (as found in extracts and purified HC-HA complexes) (from UniProt P26022 18-381)

binding [7]: binds
Molecule: thrombospondin-1 (TSP-1) of human amniotic membrane (GnHCl extract) (from UniProt P07996 19-1170)

binding [8]: binds
B1: bikunin of human umbilical cord (in UC GnHCl HC-HA) (protein, UniProt P02760 206-352, looked up)
chain: AVLPQEEEGSGGGQLVTEVTKKEDSCQLGYSAGPCMGMTSRYFYNGTSMACETFQYGGCMGNGNNFVTEKECLQTCRTVAACNLPIVRGPCRAFIQLWAFDAVKGKCVLFPYGGCQGNGNKFYSEKECREYCGVPGDGDEELLRFSN
modifications: carries chondroitin sulfate (35 kDa; 25 kDa core after chondroitinase)

binding [9]: binds
B2: non-keratan sulfate osteoadherin of human amniotic membrane (in AM GnHCl HC-HA) (protein, UniProt Q99983 21-421, looked up)
chain: QYETYQWDEDYDQEPDDDYQTGFPFRQNVDYGVPFHQYTLGCVSECFCPTNFPSSMYCDNRKLKTIPNIPMHIQQLYLQFNEIEAVTANSFINATHLKEINLSHNKIKSQKIDYGVFAKLPNLLQLHLEHNNLEEFPFPLPKSLERLLLGYNEISKLQTNAMDGLVNLTMLDLCYNYLHDSLLKDKIFAKMEKLMQLNLCSNRLESMPPGLPSSLMYLSLENNSISSIPEKYFDKLPKLHTLRMSHNKLQDIPYNIFNLPNIVELSVGHNKLKQAFYIPRNLEHLYLQNNEIEKMNLTVMCPSIDPLHYHHLTYIRVDQNKLKEPISSYIFFCFPHIHTIYYGEQRSTNGQTIQLKTQVFRRFPDDDDESEDHDDPDNAHESPEQEGAEGHFDLHYYENQE
